According to publication PMC7819943, “Rice protein-binding microarrays: a tool to detect cis-acting elements near promoter regions in rice”:
This is one part of the list.

The chains behind the UniProt entries cited, without tags or fusion partners.
UniProt Q0JBA9, entry or part of it: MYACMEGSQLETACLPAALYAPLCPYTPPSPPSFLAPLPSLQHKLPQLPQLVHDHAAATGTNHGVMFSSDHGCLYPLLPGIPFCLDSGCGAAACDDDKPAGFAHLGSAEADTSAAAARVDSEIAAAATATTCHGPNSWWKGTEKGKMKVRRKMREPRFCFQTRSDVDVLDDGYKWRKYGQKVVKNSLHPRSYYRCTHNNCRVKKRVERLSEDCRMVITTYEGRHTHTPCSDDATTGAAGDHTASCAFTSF

target: OsWRKY34 (Oryza sativa, UniProt Q0JBA9 1-250); experiment: protein-binding microarray (RPBM); PBS, 2% BSA, 51.3 ng/ul salmon testes DNA, 50 uM zinc acetate, 200 nM TF, 25 C, 1 h; high values mean tight binding; details: protein: recombinant; tags: N-terminal polyhistidine and DsRed monomer fusion (pET32a); label: CyDye5-dUTP incorporated in the synthesized complementary strand; 3' TTTTT single-stranded linker to array surface; dsDNA, one strand shown
Summary of the method: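 Binding signal here means per-feature fluorescence intensity in arbitrary units. The values were read on an Axon 4000B scanner after a custom Agilent array, double-stranded by primer extension with Cy5-dUTP, was incubated with 200 nM protein at 25 °C for 1 h in PBS with 2% BSA, salmon testes DNA and 50 µM zinc acetate, then washed. The proteins were transcription factors with an N-terminal polyhistidine tag and DsRed, expressed in E. coli BL21-CodonPlus and purified on Ni–NTA.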

Row | Sequence | binding signal
1 | CGCCGCCTCATCGCCTCCGCTCGCCGGCGGACGAAACAACCGGAGTCACCTAGTGCAG | 8760 fluorescence intensity (a.u.)
2 | TGGTGGGATTGGTCATGGGAGTTACATTTTTAGTCCTCATCGGAGTCACCTAGTGCAG | 11100 fluorescence intensity (a.u.)
3 | CGGGATTTCCAAATTCCGTTCGCGCTCTCTCTCTCCCTATCGGAGTCACCTAGTGCAG | 8210 fluorescence intensity (a.u.)
4 | CGCCTCGCCCTCGCGCTCTCGCTCTCGCTCTCGCTCGCGCCGGAGTCACCTAGTGCAG | 8970 fluorescence intensity (a.u.)
5 | GCTCCGTGCAACTGCAAAGTGACGTTTTTTTTACCACACGCGGAGTCACCTAGTGCAG | 9200 fluorescence intensity (a.u.)
6 | GTGCTAATTCCGTTGCTTTCATAGTCCCAGGCCTATAATCCGGAGTCACCTAGTGCAG | 11800 fluorescence intensity (a.u.)
7 | CACCTGTGTGCGTGCTATGATTCTTTTCTTCCCAACTTACCGGAGTCACCTAGTGCAG | 11000 fluorescence intensity (a.u.)
8 | TGATTCCCAGTGACTCCATTTTATTTTTCTTCCTTTAGATCGGAGTCACCTAGTGCAG | 8350 fluorescence intensity (a.u.)
9 | TCCCCATCTCCGCCGCAGCCCTCGTCGTCGTCCTCGTCCTCGGAGTCACCTAGTGCAG | 18900 fluorescence intensity (a.u.)
10 | CTTCGTGACTCATCCAGCGCCTCCCCTGTGCCGCACCGGCCGGAGTCACCTAGTGCAG | 8670 fluorescence intensity (a.u.)
11 | ATGATTTGGGGAATGACACTGAAGTATCCATCATTTTGCCCGGAGTCACCTAGTGCAG | 8710 fluorescence intensity (a.u.)
12 | TCGAAAAAACTTCGCGCTCCACTTTCTTGTACTCTCGCTTCGGAGTCACCTAGTGCAG | 9360 fluorescence intensity (a.u.)
13 | CCCCGCACGCACGAAATATCCCACTCGCTTCGACACTCTCCGGAGTCACCTAGTGCAG | 8880 fluorescence intensity (a.u.)
14 | TCTTCACAGGCACTCAATGCATTCCGCCCGTCAATCCTGTCGGAGTCACCTAGTGCAG | 8450 fluorescence intensity (a.u.)
15 | AGATTCATCAACTACTGCTTACATCCTTCATACTTCATTCCGGAGTCACCTAGTGCAG | 9020 fluorescence intensity (a.u.)
16 | GTCTTTGTTTAGGACGGAGTAGTATTTTTTTTATCCCTAACGGAGTCACCTAGTGCAG | 9060 fluorescence intensity (a.u.)
17 | ACTGTCTGTCTTGGTCAGCTCTATGGATGCCTGGTGTACTCGGAGTCACCTAGTGCAG | 8060 fluorescence intensity (a.u.)
18 | AGTTGTTGTGCTTTAACTGTTTTGAGCCAGGTTATTTTGCCGGAGTCACCTAGTGCAG | 12600 fluorescence intensity (a.u.)
19 | GCACTAATTTATCTGCTAGTCTTATCTTGGCCACTTGGAACGGAGTCACCTAGTGCAG | 9990 fluorescence intensity (a.u.)
20 | CAAGGCCCGCCCATCCGTCTCCTCACACTCTGGCACACCTCGGAGTCACCTAGTGCAG | 8580 fluorescence intensity (a.u.)
21 | GATTTTGAGTTTTTGCTTGCAACGTTTGACCACTCGTCTTCGGAGTCACCTAGTGCAG | 8290 fluorescence intensity (a.u.)

Some of the entries above, set out differently.
Row	Sequence	binding signal
7	CACCTGTGTGCGTGCTATGATTCTTTTCTTCCCAACTTACCGGAGTCACCTAGTGCAG	11000 fluorescence intensity (a.u.)
8	TGATTCCCAGTGACTCCATTTTATTTTTCTTCCTTTAGATCGGAGTCACCTAGTGCAG	8350 fluorescence intensity (a.u.)
9	TCCCCATCTCCGCCGCAGCCCTCGTCGTCGTCCTCGTCCTCGGAGTCACCTAGTGCAG	18900 fluorescence intensity (a.u.)
10	CTTCGTGACTCATCCAGCGCCTCCCCTGTGCCGCACCGGCCGGAGTCACCTAGTGCAG	8670 fluorescence intensity (a.u.)
11	ATGATTTGGGGAATGACACTGAAGTATCCATCATTTTGCCCGGAGTCACCTAGTGCAG	8710 fluorescence intensity (a.u.)
12	TCGAAAAAACTTCGCGCTCCACTTTCTTGTACTCTCGCTTCGGAGTCACCTAGTGCAG	9360 fluorescence intensity (a.u.)
13	CCCCGCACGCACGAAATATCCCACTCGCTTCGACACTCTCCGGAGTCACCTAGTGCAG	8880 fluorescence intensity (a.u.)
14	TCTTCACAGGCACTCAATGCATTCCGCCCGTCAATCCTGTCGGAGTCACCTAGTGCAG	8450 fluorescence intensity (a.u.)
15	AGATTCATCAACTACTGCTTACATCCTTCATACTTCATTCCGGAGTCACCTAGTGCAG	9020 fluorescence intensity (a.u.)
16	GTCTTTGTTTAGGACGGAGTAGTATTTTTTTTATCCCTAACGGAGTCACCTAGTGCAG	9060 fluorescence intensity (a.u.)

The results go on.

Row | Sequence | binding signal
22 | CCTCGCCTCGATCGGTCTCGCCCGCTCCGCTTTCACGCCGCGGAGTCACCTAGTGCAG | 9760 fluorescence intensity (a.u.)
23 | GACATCGACCTCCACGCCTGCCGGCCGCCCCACCCCGATGCGGAGTCACCTAGTGCAG | 8640 fluorescence intensity (a.u.)
24 | CGGTTTCATCCTCCTGTCCTCCTGGTAAGCCTCGAAAAAACGGAGTCACCTAGTGCAG | 10700 fluorescence intensity (a.u.)
25 | TCTTGGTCCTTCTATTATATGCAATGACGCGCATCTGTTACGGAGTCACCTAGTGCAG | 10200 fluorescence intensity (a.u.)
26 | AATCTCGTCTCGCCATTCTCTCTCTCACACACACACCTCGCGGAGTCACCTAGTGCAG | 9550 fluorescence intensity (a.u.)
27 | GTCTTCTCCGGCGTGTCGTCCCTCTCCATCGCCGCCGCCACGGAGTCACCTAGTGCAG | 9100 fluorescence intensity (a.u.)
28 | CAGTTCTTTTGTTTCTTTGACATCATTAGCCTTACATTTGCGGAGTCACCTAGTGCAG | 8470 fluorescence intensity (a.u.)
29 | GGGGTTTCTCATGGGCCAACTATACATTCACACGCGGCCGCGGAGTCACCTAGTGCAG | 17400 fluorescence intensity (a.u.)
30 | TCGTGATTGTTGTTGTTGTTGCTGCATTAGGCTGTGTTGCCGGAGTCACCTAGTGCAG | 12300 fluorescence intensity (a.u.)
31 | GCATGGAGGCGTTTCATCAAACACCTTGCGCCTGCGGGAGCGGAGTCACCTAGTGCAG | 8030 fluorescence intensity (a.u.)
32 | GATCTATGTGGATTGTCAGGGTCGATGTGTCTTTTGTGTGCGGAGTCACCTAGTGCAG | 8410 fluorescence intensity (a.u.)
33 | ATTCCGCGCGCCGCCGCCGTCGCCGCCGCCGACGTCGCCGCGGAGTCACCTAGTGCAG | 8920 fluorescence intensity (a.u.)
34 | AAGAAAAGATCGAAGCTCCTATGTTTCATCACCATCTTCACGGAGTCACCTAGTGCAG | 8440 fluorescence intensity (a.u.)
35 | CCACCATCGCCATTGCCACCACCTCTCCTATATCTCGCCCCGGAGTCACCTAGTGCAG | 10500 fluorescence intensity (a.u.)
36 | CTCGCTCACAGTAGCCGCTTTCATTCACCATCGATTCCTCCGGAGTCACCTAGTGCAG | 9450 fluorescence intensity (a.u.)
37 | TCGATTGCTCGCCCGCGCGGCCGTTGTTGTTGCAGGCCTCCGGAGTCACCTAGTGCAG | 8060 fluorescence intensity (a.u.)
38 | ATATCCAGGTTCAACGTGCACCCCAACGCTAATCGATCATCGGAGTCACCTAGTGCAG | 8880 fluorescence intensity (a.u.)
39 | TAACTTCTATTCTAGAATTCGTTACATCTGGATTTTTTTTCGGAGTCACCTAGTGCAG | 10500 fluorescence intensity (a.u.)
40 | TCATTGCACTTATTTTAGGACAGCCTACTCGCTTTTATTCCGGAGTCACCTAGTGCAG | 8810 fluorescence intensity (a.u.)
41 | GCATGTCCCTGTGTTCAGCCTTCCGAGTTCACATTCATCACGGAGTCACCTAGTGCAG | 8370 fluorescence intensity (a.u.)
42 | GTTTCTTGCAGAATTTTGTGATTTTATTATTCTTATTATCCGGAGTCACCTAGTGCAG | 8050 fluorescence intensity (a.u.)
